Results deposited as PubChem BioAssay AID1259272 (Sanger Institute, 2017).
Shown is a random part of 794 reagents tested. 7 of all reagents (0.88%) count as active. 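Essential calls reflect knock-down without drug only, not synergy with drugs; drug exposure length not given.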 Entries without a mark were called inactive. Not all columns of the deposit are shown. No sequences are given here. The record does not give: the amount of reagent, the time to read-out.

Test: 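Find kinases needed for SW1116 growth and partners for drug combinations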 (primary screen)
Cell system: SW1116 human colorectal cancer cells
Reagent: siRNA pool against human genes
Treatment: anchor drugs BYL719 (1 µM), cetuximab (5 µg/ml) or trametinib (10 nM), or DMSO vehicle; exposure length not given
Measurement: 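Cell survival as a fraction of wells given a non-targeting pool, averaged over replicates; robust z-score without drug; synergy score for each of BYL719, cetuximab and trametinib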
Direction: viability z-score, no drug: higher = more cells remaining; strongly negative means essential gene
Rule for the call: 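a robust z-score under -3 with siRNA and no drug marks the gene essential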
Meaning of the calls: active = essential (knock-down alone); inactive = no change

PTK7 → viability z-score, no drug = -2.29
MAP4K3 → viability z-score, no drug = -1.5
PAPSS2 → viability z-score, no drug = 0.232
AKT1 → viability z-score, no drug = 0.207
ELP1 → viability z-score, no drug = 0.745
MAP2K5 → viability z-score, no drug = 0.0662
ALPK2 → viability z-score, no drug = -0.418
EPHA3 → viability z-score, no drug = 0.842
CEP290 → viability z-score, no drug = 0.842
ERN2 → viability z-score, no drug = 0.432
CTNNB1 → viability z-score, no drug = 0.308
FRK → viability z-score, no drug = -0.99
PDGFRA → viability z-score, no drug = 0.842
AKT2 → viability z-score, no drug = -0.0266
GAK → viability z-score, no drug = 0.842
NTRK2 → viability z-score, no drug = 0.224
MAPK8 → viability z-score, no drug = 0.842
EIF2AK2 → viability z-score, no drug = -1.16
AKT3 → viability z-score, no drug = -0.488
CDK7 → viability z-score, no drug = 0.842
ALK → viability z-score, no drug = 0.286
MAP3K8 → viability z-score, no drug = -1.02
NRAS → viability z-score, no drug = 0.842
DIS3 → viability z-score, no drug = 0.82
PRKD1 → viability z-score, no drug = -2
MAP3K1 → viability z-score, no drug = 0.0521
RPS6KB2 → viability z-score, no drug = 0.134
MGA → viability z-score, no drug = -0.442

Records above whose gene name starts with P or p:
PTK7 → viability z-score, no drug = -2.29
PAPSS2 → viability z-score, no drug = 0.232
PDGFRA → viability z-score, no drug = 0.842
PRKD1 → viability z-score, no drug = -2
